Results taken from the supplement of paper PMC7858590.
± gives the standard deviation of the averaged measurements. In all, about 3,800 compounds were measured (“cell shape (eccentricity) Z-score vs DMSO control”: median about 1.1, lowest 2% from about -4.7 on). Some of the results follow.

System: human monocyte-derived macrophages (M0)
Assay: cell shape (eccentricity) Z-score vs DMSO control; higher = more elongated, M2-like morphology
Conditions: 20 µM; 24 h; macrophage state: M0 (M-CSF)

Compound	cell shape (Z-score)
O=C(/C=C/c1ccccc1)c1ccc(O[C@@H]2O[C@H](CO)[C@@H](O)[C@H](O)[C@H]2O)cc1O	3.01
CCC[C@@H](O)[C@H](O)[C@@H]1CC(OC)=CC(=O)O1	2.06
CC1CCCC2OC2C(=O)c2c(O)cc(O)cc2CC(=O)O1 (centres undefined)	0.58 ± 1.3
C[C@]12CCC3c4ccc(O)cc4CCC3C1CC[C@@H]2O (some centres undefined)	2.56
O=C1NCc2c1c1c3ccccc3[nH]c1c1[nH]c3ccccc3c21	0.865
COc1cc2nccc(Oc3ccc(NC(=O)C4(C(=O)Nc5ccc(F)cc5)CC4)cc3)c2cc1OC	3.17 ± 3.5
N#CC[C@H](C1CCCC1)n1cc(-c2ncnc3[nH]ccc23)cn1	10.4 ± 1.8
COc1ccccc1N1CCN(CC(C(=O)NC(C)(C)C)c2ccccc2)CC1 (centres undefined)	0.978
CCCc1cc(=O)[nH]c(=S)[nH]1	1.43
Nc1nc(OCc2ccccc2)c2[nH]cnc2n1	0.888
O=c1cc(-c2ccc(O)cc2)oc2cc(O)cc(O)c12	6.7
CC(C)(Sc1cc(C(C)(C)C)c(O)c(C(C)(C)C)c1)Sc1cc(C(C)(C)C)c(O)c(C(C)(C)C)c1	2.42
Nc1nc(N)c2nc(-c3cccc(O)c3)c(-c3cccc(O)c3)nc2n1	5.89
COC(=O)c1cc(CN2CCN(C(=N)N)CC2)cc(C(=O)N2CCN(C(=O)c3ccc(C(=N)N)cc3)CC2)c1	0.988
O=C(O)c1cc(O)c2ccc(Cl)cc2n1	1.76
Cc1ccc(C=C2CNCC(=Cc3ccc(C)cc3)C2=O)cc1	-0.8
CCc1ccccc1NC(=O)CSC(=O)NNC(=O)[C@@H](Cc1c[nH]c2ccccc12)NC(=O)OC(C)(C)C	3.78
COc1cc(O[C@@H]2O[C@H](COC3OCC(O)C(O)C3O)[C@@H](O)[C@H](O)[C@H]2O)cc(OC)c1OC (some centres undefined)	2.18
CC(=O)Nc1cc2ccccc2oc1=O	-1.02
CCN(CC)CCC(=O)N1c2ccccc2Sc2ccc(Cl)cc21	-0.319
CCC(C)N(C)C(=O)c1cc2ccccc2c(-c2ccccc2Cl)n1 (centres undefined)	-0.00854
CC(=O)OC(CCCCCCCCCC(C)O)Cc1cc(O)cc(O)c1 (centres undefined)	-0.554

Rewritten with each value named: 4 of the compounds above.
O=c1cc(-c2ccc(O)cc2)oc2cc(O)cc(O)c12
  cell shape (Z-score): 6.7
CC(C)(Sc1cc(C(C)(C)C)c(O)c(C(C)(C)C)c1)Sc1cc(C(C)(C)C)c(O)c(C(C)(C)C)c1
  cell shape (Z-score): 2.42
COc1cc(O[C@@H]2O[C@H](COC3OCC(O)C(O)C3O)[C@@H](O)[C@H](O)[C@H]2O)cc(OC)c1OC (some centres undefined)
  cell shape (Z-score): 2.18
CCC(C)N(C)C(=O)c1cc2ccccc2c(-c2ccccc2Cl)n1 (centres undefined)
  cell shape (Z-score): -0.00854

Additional structures:

Compound	cell shape (Z-score)
CCOc1ccc2nc(S(N)(=O)=O)sc2c1	2.05
O=C(O)c1cc(/N=N/c2ccc(S(=O)(=O)Nc3ccccn3)cc2)ccc1O	0.855
CS(=O)(=O)c1ccc(C2=C(c3ccccc3)C(=O)OC2)cc1	2.97
CC1(C)O[C@@H]2CC3C4CCC5=CC(=O)C=C[C@]5(C)C4[C@@H](O)C[C@]3(C)[C@]2(C(=O)CO)O1 (some centres undefined)	-2.99
CCn1cc(C(=O)O)c(=O)c2cnc(N3CCCC3)nc21	1
O=C(O)/C=C/C=C/c1ccccc1	0.396
CC(C)(C=O)Cc1cc(C(C)(C)C)c(O)c(C(C)(C)C)c1	3.85
COc1ccc(OC)c(-c2nnc3n2N=C(c2ccc(OC)c(OC)c2)CS3)c1	16.2
CN(C/C=C/C#CC(C)(C)C)Cc1cccc2ccccc12	2.26
Cc1cc(C)c(/C=C2\C(=O)Nc3ccccc32)[nH]1	2.58
N#C/C(=C\c1ccc(O)c(O)c1)C(=O)Nc1ccccc1	0.369
NCCNC(=O)c1ccc(Cl)cn1	-0.702
N#Cc1cc(I)c(O)c([N+](=O)[O-])c1	0.813
CCOC(=O)C1=C(COCCN)NC(C)=C(C(=O)OC)C1c1ccccc1Cl (centres undefined)	0.616
COC(=O)c1cc(O)c(C(=O)c2c(O)cccc2C(=O)O)c(O)c1	-1.89
Nc1c2c(nc3c1CCC3)CCCC2	-1.7
C/C=C1\C(O[C@@H]2O[C@H](CO[C@@H]3O[C@H](CO)[C@@H](O)[C@H](O)[C@H]3O)[C@@H](O)[C@H](O)[C@H]2O)OC=C(C(=O)OC)C1CC(=O)OCCc1ccc(O)cc1 (some centres undefined)	0.445
COc1ccc(-c2cc(=O)c3c(O)cc(OC)c(OC)c3o2)c(OC)c1	5.59
CCOC(=O)C1CSC(Cc2ccc(OCc3ccc([N+](=O)[O-])cc3)cc2)N1 (centres undefined)	0.491
O=c1c(-c2cc(O)c(O)c(O)c2)coc2cc(O)c(O)c(O)c12	0.318
O=C(O)c1ccccc1Nc1cccc(OCc2ccc3ccccc3n2)c1	2.63
COC(=O)C1C(O)CCC2CN3CCc4c([nH]c5ccccc45)C3CC21 (centres undefined)	3.44

Compound	cell shape (Z-score)
CCCCCc1cc(OC)c2c(c1C(=O)O)OC(C)(C)C(O)C2 (centres undefined)	1.28
CC(CN(C)C)CN1c2ccccc2Sc2ccccc21 (centres undefined)	-1.29
N#CC(=C(N)Sc1ccc(N)cc1)c1ccccc1C(F)(F)F	4.79
Cc1cccc(C=Cc2ccccc2)n1	0.54
CC(C)=CCc1c(O)c(CC=C(C)C)c2c(c1O)C(=O)CC(c1ccc(O)cc1O)O2 (centres undefined)	2.32
COCC1OC(OC(C)(C)C2CCC3(C)C=C(C4CCC5C4(C)CC(O)C4OC(C(C)(C)OC6OC(CO)C(O)C(O)C6NC(C)=O)CCC45C)CCC3O2)C(NC(C)=O)C(O)C1O (centres undefined)	0.281 ± 0.022
COC(=O)C1=CO[C@@H](O[C@@H]2O[C@H](CO)[C@@H](O)[C@H](O)[C@H]2O)C2C1CCC2(C)O (some centres undefined)	2.11 ± 2
OCC1OC(Oc2cc(O)cc(/C=C/c3ccccc3)c2)C(O)C(O)C1O (centres undefined)	1.2
COc1cc(C(=O)OC2OC(CO)C(O)C(O)C2O)cc(OC)c1OC (centres undefined)	0.582
CCn1cc(C(=O)O)c(=O)c2cc(F)c(N3CCNC(C)C3)c(F)c21 (centres undefined)	3.49
CCCC(=O)Oc1ccc2[nH]c(C(=O)c3cc4ccccc4[nH]3)cc2c1	1.03
COc1ccccc1N1CCN(CCCCN2C(=O)c3ccccc3C2=O)CC1	-2.05
O=c1c(-c2ccc(O[C@@H]3O[C@H](CO)[C@@H](O)[C@H](O)[C@H]3O)cc2)coc2c([C@@H]3O[C@H](CO)[C@@H](O)[C@H](O)[C@H]3O)c(O)cc(O)c12	1.61 ± 1.3
Clc1cccc(C=NC=Nc2cccc(Cl)c2)c1	-0.334
C=C1CC[C@H]2[C@@](C)(CCC[C@@]2(C)C(=O)O)[C@@H]1CCC(C)CCO (some centres undefined)	1.27
COc1ccccc1OCC(O)CO (centres undefined)	1.41
C[C@@]12C[C@]3(O)O[C@H](O1)[C@]1(COC(=O)c4ccccc4)[C@H]3C[C@@]12O[C@@H]1O[C@H](CO)[C@@H](O)[C@H](O)[C@H]1O	1.76
OCCOCCN1CCN(Cc2cccc(Oc3ccccc3)c2)CC1	-0.227
NC(=O)c1ccc2[nH]ccc2c1	1.86
COc1c(O)cc2occ(-c3ccccc3O)c(=O)c2c1O	-2.75
